In the supplement of paper PMC10849652:
The list shows a part of the results.

Chains of the proteins cited; added tags and fusions are not shown. Lines headed by an entry give the natural chain unless they say otherwise; changes in a name come on top.
UniProt Q5JQC4: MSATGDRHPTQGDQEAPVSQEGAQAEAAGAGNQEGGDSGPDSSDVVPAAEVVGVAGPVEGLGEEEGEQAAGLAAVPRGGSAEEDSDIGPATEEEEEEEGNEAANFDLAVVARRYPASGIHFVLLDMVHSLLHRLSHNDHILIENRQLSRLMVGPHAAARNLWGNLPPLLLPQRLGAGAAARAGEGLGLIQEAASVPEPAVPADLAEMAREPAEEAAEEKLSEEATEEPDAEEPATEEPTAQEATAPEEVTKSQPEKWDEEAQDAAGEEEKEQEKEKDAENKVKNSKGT
UniProt E9PJD7, whole entry, looked up: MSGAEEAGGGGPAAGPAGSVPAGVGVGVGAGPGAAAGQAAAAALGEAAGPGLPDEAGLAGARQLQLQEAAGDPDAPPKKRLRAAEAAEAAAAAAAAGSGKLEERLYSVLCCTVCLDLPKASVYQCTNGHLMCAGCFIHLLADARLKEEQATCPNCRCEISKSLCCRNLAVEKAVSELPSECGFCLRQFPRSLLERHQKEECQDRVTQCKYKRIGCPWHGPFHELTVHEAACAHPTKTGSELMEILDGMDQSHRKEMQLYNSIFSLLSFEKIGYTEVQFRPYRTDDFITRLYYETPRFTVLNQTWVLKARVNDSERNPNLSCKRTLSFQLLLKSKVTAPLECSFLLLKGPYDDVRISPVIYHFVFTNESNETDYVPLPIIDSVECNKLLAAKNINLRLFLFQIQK
UniProt P61962: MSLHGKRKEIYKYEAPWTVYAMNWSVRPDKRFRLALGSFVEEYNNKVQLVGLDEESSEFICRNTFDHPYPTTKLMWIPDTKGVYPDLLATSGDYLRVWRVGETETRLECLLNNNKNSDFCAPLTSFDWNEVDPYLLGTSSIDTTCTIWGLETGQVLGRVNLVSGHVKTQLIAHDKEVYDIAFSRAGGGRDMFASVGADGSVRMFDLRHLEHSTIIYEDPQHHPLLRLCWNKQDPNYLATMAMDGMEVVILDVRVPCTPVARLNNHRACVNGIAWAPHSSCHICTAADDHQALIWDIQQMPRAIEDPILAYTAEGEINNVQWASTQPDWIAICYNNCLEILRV
UniProt P0DMU9: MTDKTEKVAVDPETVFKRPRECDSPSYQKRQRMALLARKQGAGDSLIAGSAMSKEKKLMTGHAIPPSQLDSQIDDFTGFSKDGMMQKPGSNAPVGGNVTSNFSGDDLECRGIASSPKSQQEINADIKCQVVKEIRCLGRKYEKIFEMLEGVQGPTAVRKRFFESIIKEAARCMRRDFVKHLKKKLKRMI
UniProt P32929, whole entry, looked up: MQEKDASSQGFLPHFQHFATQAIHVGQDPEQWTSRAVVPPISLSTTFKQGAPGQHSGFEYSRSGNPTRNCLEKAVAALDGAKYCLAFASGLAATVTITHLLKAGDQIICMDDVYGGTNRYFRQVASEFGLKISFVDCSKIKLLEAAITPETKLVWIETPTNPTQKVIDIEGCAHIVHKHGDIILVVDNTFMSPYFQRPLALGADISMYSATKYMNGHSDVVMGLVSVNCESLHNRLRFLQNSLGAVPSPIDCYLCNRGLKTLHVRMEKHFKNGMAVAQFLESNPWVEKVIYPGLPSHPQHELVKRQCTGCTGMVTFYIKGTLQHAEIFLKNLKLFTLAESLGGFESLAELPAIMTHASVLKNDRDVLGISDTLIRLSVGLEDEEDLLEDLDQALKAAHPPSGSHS
UniProt P26232: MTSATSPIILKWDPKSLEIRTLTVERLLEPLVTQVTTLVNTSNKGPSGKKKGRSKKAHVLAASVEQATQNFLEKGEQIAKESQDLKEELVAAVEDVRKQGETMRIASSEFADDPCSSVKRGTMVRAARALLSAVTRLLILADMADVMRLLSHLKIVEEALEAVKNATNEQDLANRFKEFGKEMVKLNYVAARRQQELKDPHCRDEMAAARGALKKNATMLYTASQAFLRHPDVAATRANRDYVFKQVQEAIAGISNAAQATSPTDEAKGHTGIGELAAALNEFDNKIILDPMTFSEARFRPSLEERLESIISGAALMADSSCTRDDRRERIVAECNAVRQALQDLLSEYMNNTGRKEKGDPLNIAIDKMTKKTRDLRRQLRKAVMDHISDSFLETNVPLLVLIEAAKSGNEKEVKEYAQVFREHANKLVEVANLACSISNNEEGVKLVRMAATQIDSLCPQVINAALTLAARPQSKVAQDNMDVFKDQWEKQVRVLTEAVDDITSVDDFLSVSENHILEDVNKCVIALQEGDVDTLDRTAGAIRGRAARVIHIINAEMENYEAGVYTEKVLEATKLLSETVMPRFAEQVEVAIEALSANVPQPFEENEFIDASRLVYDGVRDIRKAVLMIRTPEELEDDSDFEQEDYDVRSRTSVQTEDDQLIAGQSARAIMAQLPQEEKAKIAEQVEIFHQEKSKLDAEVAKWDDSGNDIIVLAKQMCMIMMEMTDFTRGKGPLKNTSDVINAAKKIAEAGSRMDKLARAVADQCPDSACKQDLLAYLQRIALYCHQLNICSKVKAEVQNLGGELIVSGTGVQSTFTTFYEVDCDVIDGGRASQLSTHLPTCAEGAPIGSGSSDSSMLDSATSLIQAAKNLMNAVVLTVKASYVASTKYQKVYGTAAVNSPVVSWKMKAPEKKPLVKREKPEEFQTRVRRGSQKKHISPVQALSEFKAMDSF
UniProt Q13616, whole entry, looked up: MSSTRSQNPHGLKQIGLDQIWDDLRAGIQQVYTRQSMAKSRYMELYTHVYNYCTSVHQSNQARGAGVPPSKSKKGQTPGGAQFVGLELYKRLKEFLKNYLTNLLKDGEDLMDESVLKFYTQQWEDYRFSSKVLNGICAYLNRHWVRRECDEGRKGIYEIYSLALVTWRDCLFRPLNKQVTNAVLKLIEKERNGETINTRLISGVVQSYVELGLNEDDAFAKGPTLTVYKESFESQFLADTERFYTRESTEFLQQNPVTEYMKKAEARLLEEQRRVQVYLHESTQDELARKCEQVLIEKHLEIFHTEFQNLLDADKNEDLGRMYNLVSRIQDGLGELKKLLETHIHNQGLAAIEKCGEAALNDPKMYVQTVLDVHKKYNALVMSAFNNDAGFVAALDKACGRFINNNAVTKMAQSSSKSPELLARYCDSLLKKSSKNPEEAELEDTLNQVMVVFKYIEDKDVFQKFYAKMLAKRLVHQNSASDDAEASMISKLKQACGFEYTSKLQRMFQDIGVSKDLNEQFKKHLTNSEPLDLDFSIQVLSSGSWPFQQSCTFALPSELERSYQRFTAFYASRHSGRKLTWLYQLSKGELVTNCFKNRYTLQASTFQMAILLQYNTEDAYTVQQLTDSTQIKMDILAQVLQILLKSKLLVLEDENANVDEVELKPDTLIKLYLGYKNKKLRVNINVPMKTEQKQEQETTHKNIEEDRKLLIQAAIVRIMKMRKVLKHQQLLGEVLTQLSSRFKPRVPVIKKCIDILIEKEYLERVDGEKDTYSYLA
UniProt P00387: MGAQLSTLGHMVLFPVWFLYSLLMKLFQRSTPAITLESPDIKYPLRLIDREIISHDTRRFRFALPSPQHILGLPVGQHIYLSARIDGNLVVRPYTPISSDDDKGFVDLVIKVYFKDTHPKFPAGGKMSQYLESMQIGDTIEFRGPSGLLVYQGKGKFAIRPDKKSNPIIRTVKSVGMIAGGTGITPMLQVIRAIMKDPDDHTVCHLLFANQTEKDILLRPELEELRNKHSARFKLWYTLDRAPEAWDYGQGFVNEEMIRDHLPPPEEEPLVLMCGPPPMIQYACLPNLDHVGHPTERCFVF
UniProt O43310: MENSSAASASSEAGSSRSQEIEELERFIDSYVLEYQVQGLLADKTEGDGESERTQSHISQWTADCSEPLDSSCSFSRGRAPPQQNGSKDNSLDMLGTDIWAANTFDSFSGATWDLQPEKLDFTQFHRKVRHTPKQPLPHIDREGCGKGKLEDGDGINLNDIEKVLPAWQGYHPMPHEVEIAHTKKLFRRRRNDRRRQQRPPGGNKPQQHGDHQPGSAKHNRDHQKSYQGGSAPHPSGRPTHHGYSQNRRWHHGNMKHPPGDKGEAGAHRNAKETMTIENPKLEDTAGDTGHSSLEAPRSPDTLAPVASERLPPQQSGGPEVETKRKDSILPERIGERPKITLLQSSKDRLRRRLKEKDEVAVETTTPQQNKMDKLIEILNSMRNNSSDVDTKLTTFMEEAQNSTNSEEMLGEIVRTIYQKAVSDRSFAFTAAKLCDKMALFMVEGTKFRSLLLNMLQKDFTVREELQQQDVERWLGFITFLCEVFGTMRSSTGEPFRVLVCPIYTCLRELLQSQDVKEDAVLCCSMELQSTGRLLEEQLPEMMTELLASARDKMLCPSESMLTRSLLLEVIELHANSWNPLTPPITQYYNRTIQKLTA
UniProt Q13617, whole entry, looked up: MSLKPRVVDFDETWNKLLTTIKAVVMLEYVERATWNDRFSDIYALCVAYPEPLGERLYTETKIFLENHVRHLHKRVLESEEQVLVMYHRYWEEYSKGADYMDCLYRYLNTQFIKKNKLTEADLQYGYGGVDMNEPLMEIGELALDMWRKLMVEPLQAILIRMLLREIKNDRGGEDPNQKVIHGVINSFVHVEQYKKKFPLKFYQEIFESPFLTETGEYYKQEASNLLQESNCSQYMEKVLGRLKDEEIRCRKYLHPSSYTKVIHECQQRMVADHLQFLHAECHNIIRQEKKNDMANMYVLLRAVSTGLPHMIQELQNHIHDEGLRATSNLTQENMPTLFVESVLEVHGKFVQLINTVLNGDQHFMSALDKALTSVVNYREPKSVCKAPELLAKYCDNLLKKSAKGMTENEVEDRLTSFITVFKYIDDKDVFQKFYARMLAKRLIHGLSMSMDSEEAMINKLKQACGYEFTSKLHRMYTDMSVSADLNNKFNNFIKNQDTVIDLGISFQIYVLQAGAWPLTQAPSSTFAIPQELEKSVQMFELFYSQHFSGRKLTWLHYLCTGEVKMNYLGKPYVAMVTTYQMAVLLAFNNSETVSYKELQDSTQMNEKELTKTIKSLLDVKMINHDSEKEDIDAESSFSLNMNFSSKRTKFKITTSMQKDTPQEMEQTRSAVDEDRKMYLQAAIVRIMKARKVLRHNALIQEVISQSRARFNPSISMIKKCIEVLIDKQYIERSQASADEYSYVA
UniProt P01034: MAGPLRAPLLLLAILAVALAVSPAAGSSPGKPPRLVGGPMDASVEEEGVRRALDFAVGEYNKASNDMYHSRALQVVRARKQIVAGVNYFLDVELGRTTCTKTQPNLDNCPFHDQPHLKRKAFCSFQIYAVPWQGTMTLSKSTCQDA
UniProt Q9UHQ9: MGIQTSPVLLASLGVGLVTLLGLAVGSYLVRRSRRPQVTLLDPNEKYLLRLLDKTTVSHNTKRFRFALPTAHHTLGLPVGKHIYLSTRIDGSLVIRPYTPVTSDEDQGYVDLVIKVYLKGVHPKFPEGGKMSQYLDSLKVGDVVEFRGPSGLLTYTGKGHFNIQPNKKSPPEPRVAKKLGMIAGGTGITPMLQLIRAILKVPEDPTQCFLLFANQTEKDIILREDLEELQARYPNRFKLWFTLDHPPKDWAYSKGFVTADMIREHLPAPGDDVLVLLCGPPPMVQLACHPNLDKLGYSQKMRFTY
UniProt O75935, whole entry, looked up: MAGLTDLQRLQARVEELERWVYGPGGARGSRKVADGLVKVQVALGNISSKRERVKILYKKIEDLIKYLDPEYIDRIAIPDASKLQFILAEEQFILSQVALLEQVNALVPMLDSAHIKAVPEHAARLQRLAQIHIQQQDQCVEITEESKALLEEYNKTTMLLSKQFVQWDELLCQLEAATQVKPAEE
UniProt P08574: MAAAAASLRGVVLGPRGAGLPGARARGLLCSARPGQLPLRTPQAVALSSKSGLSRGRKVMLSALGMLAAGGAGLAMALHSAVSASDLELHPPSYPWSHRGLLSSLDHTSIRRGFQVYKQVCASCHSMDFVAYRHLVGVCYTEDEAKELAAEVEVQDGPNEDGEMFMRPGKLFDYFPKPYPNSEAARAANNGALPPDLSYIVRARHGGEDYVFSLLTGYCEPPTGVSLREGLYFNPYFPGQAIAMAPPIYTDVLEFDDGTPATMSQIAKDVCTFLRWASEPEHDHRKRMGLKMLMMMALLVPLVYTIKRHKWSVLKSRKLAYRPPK
UniProt Q14247: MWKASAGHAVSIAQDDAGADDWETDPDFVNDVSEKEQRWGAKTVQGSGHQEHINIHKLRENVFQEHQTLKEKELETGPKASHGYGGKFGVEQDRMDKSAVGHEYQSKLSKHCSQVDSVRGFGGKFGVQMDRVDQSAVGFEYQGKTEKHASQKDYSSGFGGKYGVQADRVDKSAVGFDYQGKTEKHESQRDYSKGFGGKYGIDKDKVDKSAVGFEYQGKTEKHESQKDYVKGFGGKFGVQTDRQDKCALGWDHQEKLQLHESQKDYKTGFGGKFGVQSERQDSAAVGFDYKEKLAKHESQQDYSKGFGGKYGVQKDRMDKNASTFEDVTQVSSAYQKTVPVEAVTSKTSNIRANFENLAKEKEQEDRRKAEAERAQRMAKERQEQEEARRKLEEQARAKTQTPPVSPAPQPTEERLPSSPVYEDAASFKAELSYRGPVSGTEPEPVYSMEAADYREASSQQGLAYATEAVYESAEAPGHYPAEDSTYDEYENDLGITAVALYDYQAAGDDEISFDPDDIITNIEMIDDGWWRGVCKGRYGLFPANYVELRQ

Compound: CC[C@H](C)[C@@H](C(=O)N[C@@H]([C@@H](C)O)C(=O)N[C@@H](CC(C)C)C(=O)[C@]1(CO1)C)NC(=O)[C@H]([C@@H](C)CC)N(C)C(=O)C [epoxomicin]
Test: log2 fold change, soluble protein after heating vs DMSO (PISA); higher = thermal stabilisation; K562 cells, 10 uM, 30 min; active = over 0.2 and 3.5 SD of the protein, either way, in both replicates (recomputed)
Summary of the method: (§1)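 Aliquots of K562 cells (2×10^6 cells/mL) treated with 10 μM compound for 30 min were heated for 3 min over 48°C-58°C. After pooling and extraction in PBS with 0.5% NP-40 at 4°C, soluble protein from a 21,000xg, 90 min spin was quantified by TMTpro 16plex LC-MS/MS with channel sums equalised. Thermal stability is expressed against control samples, from duplicates, as a log2 fold change.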

| Target | log2 fold change |
| --- | --- |
| CT47A1 (UniProt Q5JQC4) | inactive: 0.029 |
| CWC27 (UniProt Q6UX04) | inactive: 0.094 |
| CYB5B, A0A499FJ32 | inactive: -0.033 |
| CUX1 isoform 2 (UniProt Q13948) | inactive: -0.002 |
| CYB5R4 (UniProt Q7L1T6) | inactive: -0.009 |
| CYHR1 (UniProt E9PJD7) | inactive: -0.007 |
| DCAF7 (UniProt P61962) | inactive: 0.049 |
| CT45A10 (UniProt P0DMU9) | inactive: -0.219 |
| CTPS1 (UniProt P17812) | inactive: 0.011 |
| CTH (UniProt P32929) | inactive: 0.009 |
| CTNNA2 (UniProt P26232) | inactive: 0.118 |
| CUL1 (UniProt Q13616) | inactive: -0.013 |
| CTSL (UniProt P07711) | inactive: 0.017 |
| CTNNB1 (UniProt P35222) | active: 0.887 |
| CYB5R3 isoform 3 (UniProt P00387) | inactive: -0.004 |
| CUTA isoform 2 (UniProt O60888) | inactive: 0.125 |
| CTIF isoform 2 (UniProt O43310) | inactive: 0.041 |
| CUL3 (UniProt Q13618) | inactive: 0.041 |
| CUL2 isoform 2 (UniProt Q13617) | inactive: 0.018 |
| CST3 (UniProt P01034) | inactive: 0.051 |

| Target | log2 fold change |
| --- | --- |
| DAG1 (UniProt Q14118) | inactive: 0.023 |
| D2HGDH (UniProt Q8N465) | inactive: 0.048 |
| CTSV (UniProt O60911) | inactive: -0.007 |
| CSTF1 (UniProt Q05048) | inactive: -0.023 |
| CYB5R1 (UniProt Q9UHQ9) | inactive: 0.012 |
| CTBP1 (UniProt Q13363) | inactive: -0.029 |
| CYFIP2 (UniProt Q96F07) | inactive: -0.009 |
| CUEDC2 (UniProt Q9H467) | inactive: 0.118 |
| CXorf56 (UniProt Q9H5V9) | inactive: 0.086 |
| CSPP1 (UniProt Q1MSJ5) | inactive: -0.049 |
| DCAF15 (UniProt Q66K64) | inactive: 0.222 |
| CSTF3 (UniProt Q12996) | inactive: -0.029 |
| CYFIP1 (UniProt Q7L576) | inactive: 0.02 |
| DCTN3 (UniProt O75935) | inactive: 0.02 |
| DBR1 (UniProt Q9UK59) | inactive: -0.018 |
| CYC1 (UniProt P08574) | inactive: -0.003 |
| CTU2 (UniProt Q2VPK5) | inactive: 0.01 |
| CTBS (UniProt Q01459) | inactive: 0.033 |
| DCAF10 (UniProt Q5QP82) | inactive: -0.102 |
| CTTN (UniProt Q14247) | inactive: -0.015 |

Compound: CCn1c(C(=O)N(C2CC2)C2CC2)cc2c3c(ncn3C)c(Nc3cc(C)n(C)n3)nc21
Test: as above
Summary of the method: as §1

| Target | log2 fold change |
| --- | --- |
| CT47A1 (UniProt Q5JQC4) | inactive: 0.006 |
| CYB5B, A0A499FJ32 | inactive: 0.031 |
| CYB5R4 (UniProt Q7L1T6) | inactive: -0.065 |
| CYHR1 (UniProt E9PJD7) | inactive: 0.013 |
| DCAF7 (UniProt P61962) | inactive: 0.001 |
| CT45A10 (UniProt P0DMU9) | inactive: 0.05 |
| CTPS1 (UniProt P17812) | inactive: -0.014 |
| CTH (UniProt P32929) | inactive: 0.022 |
| CTNNA2 (UniProt P26232) | inactive: 0.012 |
| CUL1 (UniProt Q13616) | inactive: 0.004 |
| CYB5R3 isoform 3 (UniProt P00387) | inactive: 0.008 |
| CTIF isoform 2 (UniProt O43310) | inactive: -0.021 |
| CUL3 (UniProt Q13618) | inactive: -0.022 |
| CUL2 isoform 2 (UniProt Q13617) | inactive: -0.012 |
| CST3 (UniProt P01034) | inactive: 0.035 |
| D2HGDH (UniProt Q8N465) | inactive: -0.014 |
| CSTF1 (UniProt Q05048) | inactive: -0.017 |
| CYB5R1 (UniProt Q9UHQ9) | inactive: -0.006 |
| CTBP1 (UniProt Q13363) | inactive: 0.026 |
| CYFIP2 (UniProt Q96F07) | inactive: -0.008 |
| CXorf56 (UniProt Q9H5V9) | inactive: -0.013 |
| CSPP1 (UniProt Q1MSJ5) | inactive: -0.03 |
| DCAF15 (UniProt Q66K64) | inactive: -0.097 |
| DCTN3 (UniProt O75935) | inactive: 0.042 |
| CYC1 (UniProt P08574) | inactive: 0 |
| CTU2 (UniProt Q2VPK5) | inactive: -0.011 |
| CTTN (UniProt Q14247) | inactive: 0.037 |

Compound: CCn1cc(-c2ccnc3[nH]c(-c4cccc(CN(C)C)c4)cc23)c(-c2ccc(NC(=O)N(C)C)cc2)n1
Test: as above
Summary of the method: as §1

| Target | log2 fold change |
| --- | --- |
| CT47A1 (UniProt Q5JQC4) | inactive: -0.075 |
| CWC27 (UniProt Q6UX04) | inactive: 0.117 |
| CYB5B, A0A499FJ32 | inactive: -0.025 |
| CUX1 isoform 2 (UniProt Q13948) | inactive: 0.043 |
| CYB5R4 (UniProt Q7L1T6) | inactive: 0 |
| CYHR1 (UniProt E9PJD7) | inactive: -0.044 |
| DCAF7 (UniProt P61962) | inactive: -0.016 |
| CT45A10 (UniProt P0DMU9) | inactive: 0.2 |
| CTPS1 (UniProt P17812) | inactive: 0.025 |
| CTH (UniProt P32929) | inactive: -0.023 |
| CTNNA2 (UniProt P26232) | inactive: -0.037 |
| CUL1 (UniProt Q13616) | inactive: -0.027 |
| CTSL (UniProt P07711) | inactive: 0.196 |
| CTNNB1 (UniProt P35222) | inactive: -0.304 |
| CYB5R3 isoform 3 (UniProt P00387) | inactive: -0.017 |
| CUTA isoform 2 (UniProt O60888) | inactive: -0.109 |
| CTIF isoform 2 (UniProt O43310) | inactive: -0.023 |
| CUL3 (UniProt Q13618) | inactive: 0.005 |
| CUL2 isoform 2 (UniProt Q13617) | inactive: -0.07 |
| CST3 (UniProt P01034) | inactive: 0.116 |

| Target | log2 fold change |
| --- | --- |
| DAG1 (UniProt Q14118) | inactive: -0.044 |
| D2HGDH (UniProt Q8N465) | inactive: -0.143 |
| CTSV (UniProt O60911) | inactive: 0.084 |
| CSTF1 (UniProt Q05048) | inactive: 0.015 |
| CYB5R1 (UniProt Q9UHQ9) | inactive: -0.038 |
| CTBP1 (UniProt Q13363) | inactive: -0.083 |
| CYFIP2 (UniProt Q96F07) | inactive: -0.007 |
| CUEDC2 (UniProt Q9H467) | inactive: -0.001 |
| CXorf56 (UniProt Q9H5V9) | inactive: -0.055 |
| CSPP1 (UniProt Q1MSJ5) | inactive: -0.023 |
| CSTF3 (UniProt Q12996) | inactive: -0.038 |
| CYFIP1 (UniProt Q7L576) | inactive: 0.011 |
| DCTN3 (UniProt O75935) | inactive: -0.025 |
| DBR1 (UniProt Q9UK59) | inactive: 0.015 |
| CYC1 (UniProt P08574) | inactive: 0.011 |
| CTU2 (UniProt Q2VPK5) | inactive: -0.067 |
| CTBS (UniProt Q01459) | inactive: 0.069 |
| DCAF10 (UniProt Q5QP82) | inactive: -0.018 |
| CTTN (UniProt Q14247) | inactive: -0.001 |
